No constants are given. Whether binding was seen depends on the method and setting. Some binding calls cover weakened binding; strength is not graded here.

Sequences of proteins named here, by UniProt entry; tags and fusion partners are left off. Residues count along the entry.
UniProt P03423, residues 66-298: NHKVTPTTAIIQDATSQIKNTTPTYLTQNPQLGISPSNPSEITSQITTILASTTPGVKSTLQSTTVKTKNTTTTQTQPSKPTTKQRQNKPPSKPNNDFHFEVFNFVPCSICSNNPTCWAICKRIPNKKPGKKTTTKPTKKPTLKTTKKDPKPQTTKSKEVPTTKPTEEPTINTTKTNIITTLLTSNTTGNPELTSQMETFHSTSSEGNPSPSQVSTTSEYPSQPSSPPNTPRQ

Drawing on patent publication US20100285022A1, this text covers binding for two molecules.

Test [1] addresses Ga derived 12-mer peptide … (SEQ ID NO:9) (respiratory syncytial virus, strain A (A2)). Briefly: peptide array, 131-2G at 1 µg/ml, chemiluminescence.
Test [2] concerns the target RSV G protein of strain A (Ga protein) (respiratory syncytial virus, strain A (A2)) (UniProt P03423). The test can be described thus: reactivity column of Table 1.

B1: murine monoclonal antibody 131-2G (antibody, V domains shown)
VH: EVQLQQSGPELVKPGTSVKISCKASGYSFTGFTMNWVKQSHGKNLEWFGLINPFNGNTGYNQKFKGKATLTVDKSSSTAFMELLSLTSEDSAVYYCARSGKSYDYEAWFTYWGQGTLVTVSA
VL: DIVMTQTTLSLPVSLGNQASISCRSSQTIVHTNGNTYLEWYLQKPGQSPKLLIYKVSNRFSGVPDRFSGSGSGTDFILNISRVEAEDLGVYYCFQGSHVPFTFGSGTKLEIKR
Turning to B1, the binding entry in test [1] is given as “binds”.

B2: human monoclonal antibody 2D10 (antibody, V domains shown)
VH: QVQLVQSGPEVKKPGASVRLSCKASGYVFTNYGVSWVRQAPGQGLEWMGWSSPYNGNTYYAQKLKARVTMTTDTSTNTAYMELRSLRSDDTAVYYCGRDMLGVVQAVAGPFDSWGQGTLVTVSS
VL: DTPMTQSPSSVSASVGDRVTISCRASQGISNSLAWYQQKLGKAPQLLIYAASSLQSGVPSRFSGSGSGTDFTLTISSLQPEDFATYYCQQTNTFPFTFGPGTKVEVR
In the case of B2, the binding result in test [2] is reported as “binds”.
